The values that follow come from PubChem BioAssay AID1458 (National Center for Advancing Translational Sciences (NCATS), 2008).

Molecules are shown by their SMILES. In all, about 210,000 compounds went through this assay and about 5,900 (2.8%) were called active. About 5% were inconclusive and are not listed. Calls follow the shape of the dose curve; as a rule, active = well fitted activation curve with a large enough effect; inconclusive = small, poorly fitted or top-dose-only effect; inactive = no such curve, though single readings can be large or run the other way. Only a part is listed here, and it is no random draw. Entries without a call were filed so in the source.
Potency is read from the fitted curve at half-maximal effect.

This test is described as follows: qHTS Assay for Enhancers of SMN2 Splice Variant Expression. Also: nearly all actives have a fitted effect of over 55% in size. As to activity change, positive = activation: % of control where 0% means no effect. The note with it: HEK293 SMN2-luciferase splicing reporter, luminescence, 30-36 h; activity change, positive = activation: at 46.1 µM (top of the series) unless noted. In a few lines: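 qHTS luciferase splicing reporter: luminescence rises when SMN2 exon 7 is included in transfected HEK293 cells. Compound exposure lasted 30-36 h at 37C, with 4.5 mM final sodium butyrate as control, followed by a ONE-Glo read.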
(Quantitative high-throughput screening tests each substance at several concentrations.)
Take `O=C(Nc1ccc(Cl)cn1)c1ccc(COc2ccccc2Br)o1`: the Potency is active: 12.6 µM.
With `CC(C)C(=O)Nc1cccc(C(=O)Nc2ccc3c(c2)OCO3)c1`, the Potency was active: 15.8 µM.
With `CCOC(=O)c1nc(S(C)(=O)=O)ncc1Cl`, the activity change, positive = activation amounted to 60.7%.
For the compound `C[C@@H]1OC(OC2CC[C@@]3(C)C(CC[C@@]4(C)C3CC=C3C5CC(C)(C)CC[C@]5(C(=O)OC5OCC(O)[C@@H](O)[C@@H]5OC5O[C@@H](C)[C@H](O[C@H]6OC(CO)C(O)C(O)C6O)C(O)C5O)C(O)C[C@@]34C)C2(C)C)C(O)C(O)[C@H]1OC1OCC(O)C(O)[C@H]1O` (some centres undefined), the “activity change, positive = activation” value was inactive: -53.1%.
With `Cc1cc(C)c(C#N)c(SCC(=O)Nc2nnc(-c3ccccc3)s2)n1`, the activity change, positive = activation came to 30.9%.
With `Cn1c(N2CCN(c3ccccn3)CC2)nc2c1c(=O)n(Cc1ccc(Cl)cc1)c(=O)n2C`, the “activity change, positive = activation” value was inactive: -56.5%.
For the compound `COc1ccc(NC(=O)CSc2nc(C)cc(C)n2)cc1`, the activity change, positive = activation worked out at 37.4%.
`Cc1ccc(S(=O)(=O)N2CCOCC2)cc1NC(=O)CSc1nnc2cc(C)c3ccccc3n12`: the “activity change, positive = activation” value was inactive: -36.9%.
Same read-out and setting: in the case of `COc1ccccc1NC(=O)C1=C(C)Nc2nc(CCCO)nn2C1c1cccc(O)c1` (centres undefined) it was 24.8%.
For the compound `Cc1cc(N)c2ccccc2[n+]1CCCCCCCCCC[n+]1c(C)cc(N)c2ccccc21`, the Potency entry is “inactive”.
Take `O=C(CCCCn1c(=O)c2ccccc2n(Cc2ccc(F)cc2)c1=O)NCc1ccco1`: the activity change, positive = activation is 32%.
As for `Cc1cc(Br)cc(C)c1OCCCCN(C)C`, the activity change, positive = activation is -76.4%.
The same measure, in the same setting: in the case of `CC(=O)Nc1ccc(NC(=O)c2ccc(-n3c(C)ccc3C)cc2)cc1` it was 38%.
Regarding `COc1ccc(Nc2nc(C)cc(C)c2C#N)cc1`, the activity change, positive = activation came to 46.8%.
For the compound `CN(C)c1ccc(/C=C(/NC(=O)c2ccccc2)C(=O)N/N=C/c2ccc([N+](=O)[O-])c(O)c2)cc1`, the activity change, positive = activation was found to be 32.8%.
With `O=C(Nc1ccc(OCC(F)(F)C(F)F)cc1)c1ccncc1`, the “activity change, positive = activation” value is inactive: -66.4%.
As for `Cc1ccc(OCC(=O)c2cc(C)n(-c3ccccc3)c2C)c([N+](=O)[O-])n1`, the “activity change, positive = activation” value is inactive: -57.5%.
For `O=C(COC(=O)c1cccnc1Nc1ccccc1F)NCCN1C(=O)CSC1=O`, the activity change, positive = activation was 20.5%.
With `CCCC(=O)Nc1ccc2oc(-c3cncc(Br)c3)nc2c1`, the Potency is active: 4.47 µM.
As to `COc1ccc(/C=C/C(=O)c2ccc(O)cc2O)cc1OC`, the “activity change, positive = activation” value is inactive: -88.6%.
On the same count and under the same terms, in the case of `O=S(=O)(c1ccc(F)c(Cl)c1)N1CCCC1` it was 19.8%.
On the same count and under the same terms, the same measure for `COc1cc(S(=O)(=O)NCCCN2CCOCC2)ccc1Cl`: 31.9%.
Regarding `O=C(c1ccc2c(=O)n(-c3ccccc3)c(=O)[nH]c2c1)N1CCCCC1`, the activity change, positive = activation is -49.8%.
For `COc1ccc(C(=O)N=c2nc3ccccn3s2)cc1`, the activity change, positive = activation came out at 101%.
In the case of `CCOc1cc(CNCCSc2nnnn2C)cc(Br)c1OCc1ccccc1`, the activity change, positive = activation is -68.3%.
For the compound `Oc1ccc(Cl)cc1CNc1ccc(Br)cn1`, the activity change, positive = activation was 53.9%.
In the case of `CCC(=O)N1CCCc2cc(S(=O)(=O)N3CCN(c4ccccn4)CC3)ccc21`, the activity change, positive = activation is -35.2%.
For `Cc1ccn2c(Nc3ccc4c(c3)OCO4)c(-c3ccc(N(C)C)cc3)nc2c1`, the Potency was active: 15.8 µM.
On to `CCCn1cc(SCC(=O)NCC2CCCO2)c2ccccc21` (centres undefined), for which the activity change, positive = activation stood at 35.6%.
For the compound `COc1cccc(NC(=O)Nc2ccc(C)c(Cl)c2)c1`, the Potency was active: 12.6 µM.
Consider `O=C(NC(=S)Nc1cccnc1)c1cc2ccccc2o1`, for which the activity change, positive = activation stood at 117%.
As to `Cc1ccc(-c2nnc(N3CCN(C(=O)COc4ccccc4)CC3)c3ccccc23)cc1`, the “activity change, positive = activation” value was inactive: -53.8%.
The same measure, in the same setting: in the case of `C[C@H](NC(=O)OC(C)(C)C)c1nnc(SCc2c(F)cccc2Cl)o1` it was -47.5%.
Turning to `Cc1nc2ccc(NC(=O)NCCO)cc2s1`, the activity change, positive = activation was 36%.
Same read-out and setting: the same measure for `CC(C)(C)NC(=O)C(c1ccco1)N(Cc1ccc2c(c1)OCO2)C(=O)Cn1nnc2ccccc21` (centres undefined): 39.1%; for `COc1ccc(Nc2ccccc2)c(C)c1`: 32.6%.
Consider `O=C(CSc1ccc(F)cc1)N1CCC(c2nc3ccccc3s2)CC1`, for which the activity change, positive = activation was -53.3%.
In the case of `Cc1cc(C)c(-c2cc(NC(=O)COC(=O)c3ccc(CO)cc3)n(-c3ccccc3)n2)cc1C`, the activity change, positive = activation worked out at 19.3%.
Consider `O=C(CCCc1cccs1)Nc1ccc2c(c1)OCO2`, for which the Potency was active: 14.1 µM.
On to `O=C(NO)c1ccccc1O`, for which the “activity change, positive = activation” value is inactive: -0.224%.
Take `O=C1CC(c2ccco2)Cc2nc(N3CCN(Cc4ccc5c(c4)OCO5)CC3)ncc21` (centres undefined): the activity change, positive = activation was -51.8%.
On the same count and under the same terms, the same measure for `CCOc1ccc(NC(=O)CN2C(=O)C3CC=CCC3C2=O)cc1` (centres undefined): 33.4%.
Take `O=C(N/N=C/c1ccc(F)cc1)c1ccccc1`: the Potency was active: 17.8 µM.
As to `COC(=O)c1ccc(-n2nnnc2SCc2nn[nH]n2)cc1`, the activity change, positive = activation worked out at 30.9%.
As for `Cc1ccc2nc(-c3ccc(SCC(=O)Nc4nc(C)cs4)nc3)[nH]c2c1`, the Potency is active: 6.31 µM.
In the case of `O=C(NCc1ccco1)C1CC(=O)N(c2ccc(O)cc2)C1` (centres undefined), the activity change, positive = activation turned out to be 39.3%.
Consider `CC(C)=N/N=C1/NC(=O)C(CC(=O)Nc2cc(Cl)ccc2C)S1` (centres undefined), for which the activity change, positive = activation worked out at 30.8%.
As for `O=c1c2c3c(sc2nc2sc(C4CC4)nn12)CCCC3`, the Potency was active: 7.94 µM.
Take `NC(=S)NNC(=O)c1cccc(Br)c1`: the “activity change, positive = activation” value was inactive: 23.7%.
